{"source": "ChEMBL document CHEMBL4842367", "about": "“Strategies toward Discovery of Potent and Orally Bioavailable Proteolysis Targeting Chimera Degraders of Androgen Receptor for the Treatment of Prostate Cancer” (J Med Chem, 2021)", "test_system": "LNCaP", "assay": "Growth inhibition of human LNCaP cells assessed as cell viability measured after 4 days in presence of R1881 by WST-8 assay", "assay_type": "functional, cell-based", "conditions": "96 h", "in_short": "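LNCaP and VCaP cells exposed to compounds for 4 days in charcoal-stripped medium containing 0.1 nM R1881; viability read by WST-8 assay.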"}
{"smiles": "CNC(=O)c1ccc(N2C(=S)N(c3ccc(C#N)c(C(F)(F)F)c3)C(=O)C2(C)C)cc1F", "note": "[ENZALUTAMIDE]", "values": [{"measurement": "IC50", "value": 133, "unit": "nM"}]}
